Results as given in paper PMC8062585.
pKd: −log10 of the molar value.

By UniProt entry, the sequences of proteins in these tests, tags left out. Residues count along the entry.
UniProt P80188, 21-198: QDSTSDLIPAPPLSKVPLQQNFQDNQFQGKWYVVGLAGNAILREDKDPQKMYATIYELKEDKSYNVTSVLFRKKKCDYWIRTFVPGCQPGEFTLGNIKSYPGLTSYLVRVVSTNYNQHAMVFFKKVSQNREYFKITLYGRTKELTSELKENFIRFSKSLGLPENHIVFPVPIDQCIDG

Target: NGAL (UniProt P80188)
Assay: bead-based fluorescence, 4-concentration estimate
Conditions: 5' biotin; PBSMCT: DPBS with 2.5 mM MgCl2, 0.9 mM CaCl2, 0.01% Tween 20; room temperature, 1 h; bound NGAL detected with iFluor 647 anti-His antibody (6 nM); commercial protein; protein details: C-terminal His-tag; single-stranded DNA

GATAGTAAATCTTTGCCTATCCA [G13.9] showed a pKd of less than 5.99.

Work on GTGGATAGTAAATCTTTGCCTATCCAG [G13.6] yielded a pKd of less than 5.99.

Sequence GTTTTTGGTGGATAG [G12.7] has a pKd of less than 6.29.

TTTGGTGGATAGTAAATCTTTGC [G13.10] showed a pKd of less than 6.29.
